No constants are given. Whether binding was seen depends on the method and setting. Binding seen in cells or lysates may run through a third protein. A yes stands for co-enrichment or nearness to the bait. Other partners may have been found.
Target: T1, CFAP161 (mouse (endogenous in testis)) (UniProt Q6P8Y0)
T1 sequence: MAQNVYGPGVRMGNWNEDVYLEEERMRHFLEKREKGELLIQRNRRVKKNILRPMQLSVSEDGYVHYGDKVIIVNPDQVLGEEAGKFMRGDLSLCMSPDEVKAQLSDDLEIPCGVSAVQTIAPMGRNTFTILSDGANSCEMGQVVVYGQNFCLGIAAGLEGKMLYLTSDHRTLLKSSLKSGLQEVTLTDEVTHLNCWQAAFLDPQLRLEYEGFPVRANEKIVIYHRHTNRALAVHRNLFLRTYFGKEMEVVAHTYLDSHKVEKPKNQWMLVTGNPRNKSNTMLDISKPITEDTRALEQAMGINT
Experiment: affinity purification with mass spectrometry; CFAP161 immunoprecipitated from wild type mouse testis with epididymis lysate with affinity-purified alpha-CFAP161 pII crosslinked to resin (Pierce crosslink IP kit); rabbit IgG as control; LC-MS/MS

Sequences of proteins named here, by UniProt entry; tags and fusion partners are left off.
UniProt Q8C753: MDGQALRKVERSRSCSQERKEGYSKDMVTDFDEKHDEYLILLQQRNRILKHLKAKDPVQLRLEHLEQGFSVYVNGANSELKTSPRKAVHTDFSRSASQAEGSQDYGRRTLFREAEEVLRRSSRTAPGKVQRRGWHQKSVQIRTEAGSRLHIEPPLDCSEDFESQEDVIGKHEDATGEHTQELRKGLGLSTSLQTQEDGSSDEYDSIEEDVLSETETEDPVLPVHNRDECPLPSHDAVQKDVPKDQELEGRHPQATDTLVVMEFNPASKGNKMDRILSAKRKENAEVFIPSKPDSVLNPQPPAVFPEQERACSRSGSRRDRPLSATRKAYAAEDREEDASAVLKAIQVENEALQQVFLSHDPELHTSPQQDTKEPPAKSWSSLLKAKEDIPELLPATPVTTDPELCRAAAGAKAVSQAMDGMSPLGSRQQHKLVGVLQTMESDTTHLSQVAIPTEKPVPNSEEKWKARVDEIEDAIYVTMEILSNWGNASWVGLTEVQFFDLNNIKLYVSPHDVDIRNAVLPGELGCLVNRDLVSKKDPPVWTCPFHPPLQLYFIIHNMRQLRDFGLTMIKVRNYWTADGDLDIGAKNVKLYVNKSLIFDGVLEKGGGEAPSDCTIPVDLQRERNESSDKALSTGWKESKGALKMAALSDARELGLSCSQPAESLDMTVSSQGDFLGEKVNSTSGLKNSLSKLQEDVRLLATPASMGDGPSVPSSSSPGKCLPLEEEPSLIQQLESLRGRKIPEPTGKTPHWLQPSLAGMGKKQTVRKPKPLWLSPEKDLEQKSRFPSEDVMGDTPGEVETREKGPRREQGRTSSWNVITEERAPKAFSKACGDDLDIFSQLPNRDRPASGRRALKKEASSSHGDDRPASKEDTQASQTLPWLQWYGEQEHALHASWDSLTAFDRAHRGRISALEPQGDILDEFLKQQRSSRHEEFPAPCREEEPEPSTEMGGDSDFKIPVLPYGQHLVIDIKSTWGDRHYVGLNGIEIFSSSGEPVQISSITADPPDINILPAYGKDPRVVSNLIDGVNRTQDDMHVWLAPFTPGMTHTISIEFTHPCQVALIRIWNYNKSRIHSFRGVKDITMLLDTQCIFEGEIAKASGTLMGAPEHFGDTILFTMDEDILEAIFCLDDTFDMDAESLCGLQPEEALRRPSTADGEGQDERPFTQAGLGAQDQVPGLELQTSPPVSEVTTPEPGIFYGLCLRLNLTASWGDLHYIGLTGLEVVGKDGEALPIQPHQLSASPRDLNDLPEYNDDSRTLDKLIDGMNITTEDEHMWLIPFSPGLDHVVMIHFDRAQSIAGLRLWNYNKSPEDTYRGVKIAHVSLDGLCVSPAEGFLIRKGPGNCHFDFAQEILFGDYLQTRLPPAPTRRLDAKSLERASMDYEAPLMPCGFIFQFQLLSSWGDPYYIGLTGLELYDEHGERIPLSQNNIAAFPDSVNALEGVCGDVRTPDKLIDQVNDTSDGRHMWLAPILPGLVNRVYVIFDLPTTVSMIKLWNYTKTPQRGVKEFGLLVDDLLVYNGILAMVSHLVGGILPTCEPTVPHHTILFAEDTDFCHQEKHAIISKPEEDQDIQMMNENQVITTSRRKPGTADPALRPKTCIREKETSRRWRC

## KIAA0556 (Katanin-interacting protein KATNIP) (from UniProt Q8C753 1-1610)
  binding: binds
